The record followed here is the supplement of paper PMC12819154, “High-throughput peptide-centric local stability assay extends protein–ligand identification to membrane proteins, tissues and bacteria” (Nature Structural & Molecular Biology, 2025).

By UniProt entry, the sequences of proteins in these tests, tags left out. Where a name states a change or a piece, a line headed by the entry shows the natural chain unless it says otherwise.
UniProt P27848: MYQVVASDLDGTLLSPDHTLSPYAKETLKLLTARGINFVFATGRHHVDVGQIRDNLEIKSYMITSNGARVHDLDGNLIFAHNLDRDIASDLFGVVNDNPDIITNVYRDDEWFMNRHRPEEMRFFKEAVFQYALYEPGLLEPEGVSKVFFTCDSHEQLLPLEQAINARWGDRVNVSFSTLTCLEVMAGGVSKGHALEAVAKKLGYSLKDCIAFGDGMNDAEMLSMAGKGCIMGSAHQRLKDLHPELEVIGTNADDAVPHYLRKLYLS
UniProt P32675: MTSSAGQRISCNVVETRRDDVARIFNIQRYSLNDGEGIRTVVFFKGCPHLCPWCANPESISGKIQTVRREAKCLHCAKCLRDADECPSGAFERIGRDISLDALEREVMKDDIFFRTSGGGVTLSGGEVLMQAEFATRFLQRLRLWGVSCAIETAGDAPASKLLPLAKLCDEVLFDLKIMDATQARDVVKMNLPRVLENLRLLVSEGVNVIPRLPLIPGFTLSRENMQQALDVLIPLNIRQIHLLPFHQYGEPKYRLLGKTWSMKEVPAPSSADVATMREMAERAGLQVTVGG
UniProt P24183, whole entry: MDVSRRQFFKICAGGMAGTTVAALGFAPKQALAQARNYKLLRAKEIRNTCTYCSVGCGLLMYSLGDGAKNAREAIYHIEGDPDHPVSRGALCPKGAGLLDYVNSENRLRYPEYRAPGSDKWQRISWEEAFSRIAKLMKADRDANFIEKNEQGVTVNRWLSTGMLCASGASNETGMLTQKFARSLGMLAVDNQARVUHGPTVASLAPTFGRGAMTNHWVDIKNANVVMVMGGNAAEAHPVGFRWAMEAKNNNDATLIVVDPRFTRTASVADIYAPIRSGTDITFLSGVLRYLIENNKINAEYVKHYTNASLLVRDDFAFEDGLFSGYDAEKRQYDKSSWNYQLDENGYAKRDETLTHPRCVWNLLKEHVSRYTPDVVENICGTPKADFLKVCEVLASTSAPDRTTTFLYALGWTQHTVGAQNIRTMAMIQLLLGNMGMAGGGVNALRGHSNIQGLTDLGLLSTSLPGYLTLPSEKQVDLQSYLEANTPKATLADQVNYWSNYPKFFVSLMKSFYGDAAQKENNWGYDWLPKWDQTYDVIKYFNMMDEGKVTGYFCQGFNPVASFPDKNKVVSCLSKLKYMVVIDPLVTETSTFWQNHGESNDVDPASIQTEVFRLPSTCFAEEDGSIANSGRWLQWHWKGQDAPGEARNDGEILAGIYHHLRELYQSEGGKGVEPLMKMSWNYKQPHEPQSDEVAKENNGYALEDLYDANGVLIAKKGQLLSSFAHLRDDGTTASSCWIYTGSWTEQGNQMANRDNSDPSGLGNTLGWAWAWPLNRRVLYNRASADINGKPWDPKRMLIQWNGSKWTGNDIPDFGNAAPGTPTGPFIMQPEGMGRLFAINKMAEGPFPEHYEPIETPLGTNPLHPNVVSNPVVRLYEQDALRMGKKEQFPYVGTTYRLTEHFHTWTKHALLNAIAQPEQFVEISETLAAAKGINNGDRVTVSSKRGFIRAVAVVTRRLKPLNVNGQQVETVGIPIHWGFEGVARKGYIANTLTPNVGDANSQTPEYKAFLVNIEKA
UniProt P28905: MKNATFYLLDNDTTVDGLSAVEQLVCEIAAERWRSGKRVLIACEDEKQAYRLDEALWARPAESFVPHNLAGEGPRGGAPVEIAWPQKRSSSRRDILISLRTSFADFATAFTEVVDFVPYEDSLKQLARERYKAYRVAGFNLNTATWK

The list shows a part of the results. Most values lie at the level of the controls, where differences are scatter.

Compound in the assay: CC1(C)S[C@@H]2[C@H](NC(=O)[C@H](N)c3ccccc3)C(=O)N2[C@H]1C(=O)O [ampicillin]
Kind of assay: log2 fold change of tryptic peptide abundance, ligand vs vehicle (limited proteolysis) (log2 ratio); higher = more trypsin-susceptible (destabilized). To be noted: ligand concentration: 10 uM; sample: E. coli crude lysate.
Turning to “UniProt P27848 (peptide sequence: HHVDVGQIRDNLEIK, peptide start residue: 45)”, the log2 fold change was found to be 0.276. Regarding “UniProt P32675 (peptide sequence: LLVSEGVNVIPR, peptide start residue: 201)”, the log2 fold change was -0.571. With “UniProt P24183 (peptide sequence: ASADINGKPWDPKR, peptide start residue: 782)”, the log2 fold change was -0.783. As for “UniProt P28905 (peptide sequence: VLIACEDEK, peptide start residue: 39)”, the log2 fold change is 0.484.
